1 molecule from the supplement of paper PMC6411743 can be followed below.

Molecules are shown by their SMILES. ± gives the standard deviation of the averaged measurements. The list shows a part of the results, in another mix than the full data.

For this assay, the target named is A0A0A0MT26|P13637 and related entries (UniProt P13637). In words: NP40-soluble protein abundance relative to vehicle (solubility fold change) (ratio); higher = more soluble protein in presence of AMP-PNP. The method in brief: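 Jurkat crude lysate (Dounce-homogenised) was treated with eight concentrations from 0.1 to 10 mM for 10 min at room temperature, then 3 min at 37 °C. It was solubilised with 0.8% NP40 and benzonase (60 min, 4 °C) and ultracentrifuged, and the supernatant was TMT-labelled for LC-MS/MS. Intensities were vsn-normalised, and the value is the fold change against the NP40-processed vehicle per replicate, from three independent experiments.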

With `Nc1ncnc2c1ncn2[C@@H]1O[C@H](COP(=O)(O)OP(=O)(O)NP(=O)(O)O)[C@@H](O)[C@H]1O` [adenylyl imidodiphosphate], the NP40-soluble protein abundance stood at 1.02 ± 0.032 (concentration: 1mM); 1.05 ± 0.022 (concentration: 2mM); 0.999 ± 0.044 (concentration: 4mM); 0.968 ± 0.012 (concentration: 6mM); 0.951 ± 0.026 (concentration: 8mM); 0.948 ± 0.035 (concentration: 10mM).
